Laboratory results: article doi:10.1101/2024.08.08.607204, “Mechanism of ASF1 Inhibition by CDAN1” (bioRxiv, 2024)
Like-named read-outs stand apart in the source and are kept apart here. These are yes or no findings as the source states them, for the method shown. In cells and extracts the contact can be indirect. Some results given as binding are weak or reduced against the parent protein; the word gives no strength. For some of these results: Tags and fused reporters may be left off the sequences shown.

Chains of the proteins cited; added tags and fusions are not shown.
UniProt Q9Y294: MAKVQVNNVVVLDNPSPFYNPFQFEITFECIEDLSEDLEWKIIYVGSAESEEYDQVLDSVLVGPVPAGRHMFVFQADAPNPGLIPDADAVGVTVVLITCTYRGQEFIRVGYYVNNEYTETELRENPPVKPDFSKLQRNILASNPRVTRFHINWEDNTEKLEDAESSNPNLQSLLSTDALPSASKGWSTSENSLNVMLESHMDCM
UniProt Q9NVP2: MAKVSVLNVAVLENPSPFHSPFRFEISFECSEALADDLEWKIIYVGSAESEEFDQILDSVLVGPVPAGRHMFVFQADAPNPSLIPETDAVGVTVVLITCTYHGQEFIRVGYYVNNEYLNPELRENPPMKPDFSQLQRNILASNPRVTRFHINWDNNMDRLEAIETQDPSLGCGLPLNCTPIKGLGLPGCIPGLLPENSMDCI

T1: FLAG-tagged CDIN1 (F-CDIN1) (UniProt Q9Y2V0)
T1 sequence: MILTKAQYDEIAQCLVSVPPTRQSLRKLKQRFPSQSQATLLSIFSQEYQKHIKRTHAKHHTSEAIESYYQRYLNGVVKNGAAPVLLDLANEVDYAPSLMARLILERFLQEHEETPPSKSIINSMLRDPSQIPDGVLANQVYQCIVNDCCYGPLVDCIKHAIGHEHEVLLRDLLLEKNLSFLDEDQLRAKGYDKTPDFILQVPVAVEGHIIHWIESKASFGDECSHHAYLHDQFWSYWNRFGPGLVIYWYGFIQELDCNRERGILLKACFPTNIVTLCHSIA

T2: Strep-tagged CDAN1 (ST-CDAN1), wildtype (human, UniProt Q8IWY9 1-1227)
T2 construct: Codanin-1 (CDAN1) cDNA from Horizon Discovery/Dharmacon; a point mutation of the clone (S421F) was corrected; in pCDNA3.1; Dimer by SEC-MALS and cryo-EM; Same plasmid used in Expi293 (purifications) and in Flp-In 293 T-REx (pulldowns); kept as one molecule; also called WT CDAN1; Strep-CDAN1; source: Expi293, transiently transfected, in lysate and purified in complexes (anti-FLAG, Strep-Tactin); …
T2 sequence: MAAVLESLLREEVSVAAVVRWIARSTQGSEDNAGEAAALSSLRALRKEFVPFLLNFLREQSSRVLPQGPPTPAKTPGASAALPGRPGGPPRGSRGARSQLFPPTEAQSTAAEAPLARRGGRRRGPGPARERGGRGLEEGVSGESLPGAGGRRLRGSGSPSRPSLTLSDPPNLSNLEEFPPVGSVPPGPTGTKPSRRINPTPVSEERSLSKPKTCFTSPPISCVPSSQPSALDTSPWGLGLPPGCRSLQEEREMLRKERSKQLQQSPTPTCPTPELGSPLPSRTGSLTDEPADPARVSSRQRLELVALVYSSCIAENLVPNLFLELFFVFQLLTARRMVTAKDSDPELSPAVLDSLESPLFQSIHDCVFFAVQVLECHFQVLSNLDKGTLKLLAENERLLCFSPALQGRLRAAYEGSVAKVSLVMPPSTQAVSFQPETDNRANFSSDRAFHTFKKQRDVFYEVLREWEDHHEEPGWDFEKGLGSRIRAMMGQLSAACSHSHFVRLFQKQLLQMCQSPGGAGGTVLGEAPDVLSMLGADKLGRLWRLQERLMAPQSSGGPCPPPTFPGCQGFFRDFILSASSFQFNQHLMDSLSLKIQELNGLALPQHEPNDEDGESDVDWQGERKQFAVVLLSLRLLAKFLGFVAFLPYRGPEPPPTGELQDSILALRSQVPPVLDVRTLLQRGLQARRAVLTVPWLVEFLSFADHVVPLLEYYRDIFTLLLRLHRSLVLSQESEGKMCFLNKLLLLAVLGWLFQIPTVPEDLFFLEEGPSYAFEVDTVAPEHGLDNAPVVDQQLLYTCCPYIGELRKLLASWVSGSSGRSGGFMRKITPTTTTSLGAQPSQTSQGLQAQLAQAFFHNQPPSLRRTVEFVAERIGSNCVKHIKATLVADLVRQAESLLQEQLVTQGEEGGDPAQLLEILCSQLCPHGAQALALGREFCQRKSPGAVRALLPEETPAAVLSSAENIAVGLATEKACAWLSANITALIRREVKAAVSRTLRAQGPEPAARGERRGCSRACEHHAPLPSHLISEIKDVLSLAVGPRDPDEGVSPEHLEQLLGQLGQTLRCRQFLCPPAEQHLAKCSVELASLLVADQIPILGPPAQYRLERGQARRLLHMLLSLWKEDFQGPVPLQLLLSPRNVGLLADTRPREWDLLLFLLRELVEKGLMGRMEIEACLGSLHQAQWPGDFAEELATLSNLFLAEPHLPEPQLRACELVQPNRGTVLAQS

T3: endogenous CDIN1 with a C-terminal HaloTag-FLAG (HF) epitope (human (endogenous in Flp-In 293 T-REx)) (UniProt Q9Y2V0)
T3 sequence: T1 sequence

B1: FLAG-tagged CDIN1 (F-CDIN1) (natural protein, UniProt Q9Y2V0 1-281, looked up)
chain: T1 sequence
notes: CDIN1 (C15orf41) cDNA synthesized by IDT, in pCDNA3.1; source: Expi293, transiently transfected, in lysate and purified in complexes (anti-FLAG, Strep-Tactin); not shown: 3xFLAG, N-terminal, kept

How the values were obtained:
[1] = target: T1, FLAG-tagged CDIN1 (F-CDIN1); test: co-IP + pull-down; tandem purification from transiently transfected Expi293 cells: anti-FLAG immunoprecipitation, 3x FLAG peptide elution, then Strep-Tactin pulldown, desthiobiotin elution; Coomassie staining and immunoblotting
[2] = target: T2, Strep-tagged CDAN1 (ST-CDAN1), wildtype; test: as above
[3] = target: T3, endogenous CDIN1 with a C-terminal HaloTag-FLAG (HF) epitope (human (endogenous in Flp-In 293 T-REx)); test: co-IP; anti-FLAG M2 agarose immunoprecipitation of endogenously HaloTag-FLAG-tagged CDAN1 or CDIN1 from Flp-In 293 T-REx lysates in IP buffer (50 mM HEPES pH 7.5, 100 mM KOAc, 2.5 Mg(OAc)2, 1% Triton X-100); immunoblotting
[4] = target: FLAG-tagged ASF1A (F-ASF1A) (human) (UniProt Q9Y294); test: co-IP + pull-down; tandem purification from transiently transfected Expi293 cells: anti-FLAG immunoprecipitation, 3x FLAG peptide elution, then Strep-Tactin pulldown, desthiobiotin elution; Coomassie staining and immunoblotting
[5] = target: T1, FLAG-tagged CDIN1 (F-CDIN1); test: as above; remark: listed apart in the source
[6] = target: T2, Strep-tagged CDAN1 (ST-CDAN1), wildtype; test: as above; remark: listed apart in the source

Molecule | binding [1] | binding [2] | binding [3] | binding [4] | binding [5] | binding [6]
endogenous ASF1A (from UniProt Q9Y294 1-204) | binds | binds | binds | – | – | –
endogenous ASF1B (from UniProt Q9NVP2 1-202) | – | – | binds | – | – | –
B1 | – | – | – | binds | binds | binds
